# According to PubChem BioAssay AID2685 (National Center for Advancing Translational Sciences (NCATS), 2010):
# Some of the results follow. These are further read-outs of the screen, such as a control signal, another cell line or another target. No call is given for them. Compounds called inactive in the main read-out are mostly missing here. Words in brackets tell the shape of the fitted curve; partial curves, single points and poor fits give uncertain potencies.
# Test: qHTS Assay for Lipid Storage Modulators in Drosophila S3 Cells;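 as to cell number change: cells counted by Cell Tracker Red CMTPX staining in the red channel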
# Conditions: BODIPY lipid droplet fluorescence, 18-24 h; for cell number change: measured here: cell count max response, cells fed with added oleic acid
# In short: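 Drosophila S3 cells got compounds at several concentrations plus oleic acid (400 uM solution). Laser-scanning cytometry with 488 nm excitation read lipid droplets at 500-530 nm and cells at 575-640 nm. Percent activity was relative to 20 uM Triacsin C.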
# [1] = measured here: lipid fluorescence (Fed channel) AC50, cells fed with added oleic acid
# [2] = measured here: cell number channel AC50, cells fed with added oleic acid
SMILES,cell number change,AC50 [1],AC50 [2]
CCN1C(=O)N(C)C2(c3ccccc3)N(C)C(=O)N(C)C12c1ccccc1 (stereo not drawn),-2.05%,"16400 nM [falling, partial curve]",–
CCOC(=O)N1CCN(c2nc(-c3cccs3)nc3ccccc23)CC1,10.5%,–,–
CCCCCCCOc1ccc(C2CC(=O)N(C)C2=O)cc1 (stereo not drawn),-31.8%,–,"16400 nM [falling, single point]"
CC(=O)Nc1ccc(NC(=O)c2cccc(-c3cc4ccccc4oc3=O)c2)cc1,-13.7%,"580 nM [falling, partial curve]",–
CCOC(=O)c1ccc(NC(=O)CSc2nnc(CNC(=O)c3c(F)cccc3Cl)o2)cc1,–,"411 nM [rising, full curve, poor fit]","366 nM [rising, full curve, poor fit]"
Fc1ccc(-c2nnc3ccccn23)cc1,–,"580 nM [rising, single point]","130 nM [rising, full curve, poor fit]"
O=c1cc2ncc(-n3cc([N+](=O)[O-])cn3)cn2[nH]1,53.6%,–,"29100 nM [rising, single point]"
COc1cc(C(=O)N[C@@H](C)C(=O)N2CCC3(CC2)NCCc2[nH]cnc23)cc(OC)c1OC,20.1%,–,–
COc1ccc(C(=O)Oc2ccc(=O)n(-c3ccccc3)n2)cc1,8.05%,"18400 nM [rising, single point]",–
O=C(CNC(=O)c1ccccc1)OCCCOC(=O)CNC(=O)c1ccccc1,-4.32%,"20600 nM [rising, single point]",–
COc1ccc(S(=O)(=O)NCC(=O)N(CC2CCCO2)C(C(=O)NC2CCCC2)C(C)C)cc1 (stereo not drawn),-2.82%,–,–
Cc1nc(NCCN2CCOCC2)c2nnn(Cc3c(F)cccc3Cl)c2n1,4.3%,–,–
CSCCC(NC(=O)c1ccco1)C(=O)OCC(=O)Nc1sccc1C#N (stereo not drawn),32.8%,–,"18400 nM [rising, single point]"
COC(=O)c1c(-c2ccc(SC)cc2)sc2ccccc12,14.6%,"326 nM [falling, partial curve]","259 nM [falling, partial curve]"
COC(=O)c1ccc(NS(=O)(=O)c2cc(-c3cc(C)no3)ccc2OC)cc1,-0.989%,"32600 nM [falling, single point]",–
CCOc1ccc(NC(=O)NC2CCS(=O)(=O)C2)cc1 (stereo not drawn),3.95%,–,–
C=CCOc1c(Br)cc(CNn2nnnc2N)cc1OCC,42.6%,"517 nM [rising, full curve]","517 nM [rising, full curve]"
CCCCNC(=O)NNC(=O)c1ccc(F)cc1,42.1%,–,"29100 nM [rising, single point]"

# A different layout for some results above:
SMILES | cell number change | AC50 [1] | AC50 [2]
COc1ccc(S(=O)(=O)NCC(=O)N(CC2CCCO2)C(C(=O)NC2CCCC2)C(C)C)cc1 (stereo not drawn) | -2.82% | – | –
Cc1nc(NCCN2CCOCC2)c2nnn(Cc3c(F)cccc3Cl)c2n1 | 4.3% | – | –
